Measurements reported in PubChem BioAssay AID1259425 (University of Nebraska Medical Center, 2018).
Here is an unselected part of about 14,000 deposited reagents. Further read-outs or replicates are left out here. The record does not give: the time to read-out.

- Test: 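Compare each knockdown with KSR1 silencing using changes in marker transcripts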 (primary screen)
- Cells: HCT116 human colon cancer cells
- Reagents: siRNA pool against human genes, 50 nM siRNA
- Detection: 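mRNA of six signature genes measured together by branched-DNA assay after 50 nM siRNA pool, blank removed, divided by geometric mean of two housekeeping genes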
- Reading the numbers: BNIP3L mRNA: higher = more BNIP3L transcript after knockdown; NDRG1 mRNA: higher = more NDRG1 transcript after knockdown

GP9 (glycoprotein IX platelet) gave BNIP3L mRNA, set 1 = 0.128; NDRG1 mRNA, set 1 = 0.463.
BCKDHB (branched chain keto acid dehydrogenase E1 subunit beta) showed BNIP3L mRNA, set 1 = 0.141; NDRG1 mRNA, set 1 = 0.25.
After knock-down of NEUROG3 (neurogenin 3), the record shows BNIP3L mRNA, set 1 = 0.142; NDRG1 mRNA, set 1 = 0.229.
With knock-down of MAB21L1 (mab-21 like 1), the screen gave BNIP3L mRNA, set 1 = 0.0608; NDRG1 mRNA, set 1 = 0.132.
RPGR (retinitis pigmentosa GTPase regulator) scored BNIP3L mRNA, set 1 = 0.209; NDRG1 mRNA, set 1 = 0.203.
FGFR4 (fibroblast growth factor receptor 4) showed BNIP3L mRNA, set 1 = 0.127; NDRG1 mRNA, set 1 = 0.178.
DCHS2 (dachsous cadherin-related 2) scored BNIP3L mRNA, set 1 = 0.11; NDRG1 mRNA, set 1 = 0.266.
Against SMPX (small muscle protein X-linked), the values are BNIP3L mRNA, set 1 = 0.105; NDRG1 mRNA, set 1 = 0.181.
SELENOW (selenoprotein W) showed BNIP3L mRNA, set 1 = 0.346; NDRG1 mRNA, set 1 = 0.829.
Silencing of SLC68A1 came out at: BNIP3L mRNA, set 1 = 0.197; NDRG1 mRNA, set 1 = 0.491.
Silencing of NOD2 (nucleotide binding oligomerization domain containing 2) gave: BNIP3L mRNA, set 1 = 0.108; NDRG1 mRNA, set 1 = 0.143.
For S100B (S100 calcium binding protein B), the entry reads BNIP3L mRNA, set 1 = 0.0932; NDRG1 mRNA, set 1 = 0.0961.
PCGF6 (polycomb group ring finger 6) scored BNIP3L mRNA, set 1 = 0.143; NDRG1 mRNA, set 1 = 0.0838.
SALL3 (spalt like transcription factor 3) scored BNIP3L mRNA, set 1 = 0.0754; NDRG1 mRNA, set 1 = 0.166.
With knock-down of NHERF1 (NHERF family PDZ scaffold protein 1), the record shows BNIP3L mRNA, set 1 = 0.261; NDRG1 mRNA, set 1 = 0.278.
Silencing of TMEM69 (transmembrane protein 69) came out at: BNIP3L mRNA, set 1 = 0.144; NDRG1 mRNA, set 1 = 0.253.
ZDHHC17 (zDHHC palmitoyltransferase 17) gave BNIP3L mRNA, set 1 = 0.036; NDRG1 mRNA, set 1 = 0.153.
After knock-down of PLAUR (plasminogen activator, urokinase receptor), the screen gave BNIP3L mRNA, set 1 = 0.0699; NDRG1 mRNA, set 1 = 0.166.
Depletion of CCDC54 (coiled-coil domain containing 54) gave: BNIP3L mRNA, set 1 = 0.118; NDRG1 mRNA, set 1 = 0.137.
After knock-down of MLKL (mixed lineage kinase domain like pseudokinase) the results were BNIP3L mRNA, set 1 = 0.117; NDRG1 mRNA, set 1 = 0.109.
For HLX (H2.0 like homeobox), the entry reads BNIP3L mRNA, set 1 = 0.0763; NDRG1 mRNA, set 1 = 0.0931.
After knock-down of CLCN7 (Cl-/H+ antiporter 7) the results were BNIP3L mRNA, set 1 = 0.305; NDRG1 mRNA, set 1 = 0.33.
NKTR (natural killer cell triggering receptor) gave BNIP3L mRNA, set 1 = 0.181; NDRG1 mRNA, set 1 = 0.129.
MPO (myeloperoxidase) showed BNIP3L mRNA, set 1 = 0.0874; NDRG1 mRNA, set 1 = 0.0818.
With knock-down of SEMA3G (semaphorin 3G), the screen gave BNIP3L mRNA, set 1 = 0.165; NDRG1 mRNA, set 1 = 0.277.
PPP2R5B (protein phosphatase 2 regulatory subunit B'beta) scored BNIP3L mRNA, set 1 = 0.0466; NDRG1 mRNA, set 1 = 0.115.
Knock-down of RASSF1 (Ras association domain family member 1) came out at: BNIP3L mRNA, set 1 = 0.176; NDRG1 mRNA, set 1 = 0.205.
After knock-down of NMNAT2 (nicotinamide nucleotide adenylyltransferase 2), the record shows BNIP3L mRNA, set 1 = 0.0601; NDRG1 mRNA, set 1 = 0.109.

Ordered by “BNIP3L mRNA, set 1” (lowest first): 2 of the entries above.
MAB21L1 (mab-21 like 1) | BNIP3L mRNA, set 1 = 0.0608; NDRG1 mRNA, set 1 = 0.132
RPGR (retinitis pigmentosa GTPase regulator) | BNIP3L mRNA, set 1 = 0.209; NDRG1 mRNA, set 1 = 0.203
